The other results are listed elsewhere or left out.
Columns and labels:
Test in all cases: glycan array binding signal (z-score within array); higher = stronger binding
Settings in all cases: glycan notation: IUPAC condensed, linker removed
Glc(b1-6)Glc = molecular target: Glc(b1-6)Glc
Outline: (§1)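 From the Consortium for Functional Glycomics database, 3228 arrays were curated, keeping only those whose protein sequence was available. Binding is given as a within-array Z-score averaged across arrays sharing a protein sequence and across linkers. Negative Z-scores can be read as non-binding.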

GlcA(b1-3)Gal = molecular target: GlcA(b1-3)Gal
Outline: as §1

GlcA(b1-3)GlcNAc = molecular target: GlcA(b1-3)GlcNAc
Outline: as §1

GlcA(b1-6)Gal = molecular target: GlcA(b1-6)Gal
Outline: as §1

[1] = molecular target: GlcA3S(b1-3)Gal(b1-4)GlcNAc(b1-2)Man
Outline: as §1

[2] = molecular target: GlcA3S(b1-3)Gal(b1-4)GlcNAc(b1-3)Gal(b1-4)Glc
Outline: as §1

[3] = molecular target: GlcNAc(a1-3)Gal(b1-4)GlcNAc
Outline: as §1

[4] = molecular target: GlcNAc(a1-4)Gal(b1-3)GlcNAc
Outline: as §1

[5] = molecular target: GlcNAc(a1-4)Gal(b1-4)GalNAc
Outline: as §1

[6] = molecular target: GlcNAc(a1-4)Gal(b1-4)GlcNAc
Outline: as §1

[7] = molecular target: GlcNAc(a1-4)Gal(b1-4)GlcNAc(b1-3)Gal(b1-4)Glc
Outline: as §1

[8] = molecular target: GlcNAc(a1-4)Gal(b1-4)GlcNAc(b1-3)Gal(b1-4)GlcNAc
Outline: as §1

[9] = molecular target: GlcNAc(a1-4)Gal(b1-4)GlcNAc(b1-3)Gal(b1-4)GlcNAc(b1-3)Gal(b1-4)GlcNAc
Outline: as §1

[10] = molecular target: GlcNAc(a1-4)Gal(b1-4)GlcNAc(b1-3)Gal(b1-4)[Fuc(a1-3)]GlcNAc(b1-3)Gal(b1-4)[Fuc(a1-3)]GlcNAc
Outline: as §1

[11] = molecular target: GlcNAc(a1-6)Gal(b1-4)GlcNAc
Outline: as §1

[12] = molecular target: GlcNAc(b1-2)Gal(b1-3)GalNAc
Outline: as §1

[13] = molecular target: GlcNAc(b1-2)Man(a1-3)[GlcNAc(b1-2)Man(a1-6)]Man(b1-4)GlcNAc(b1-4)GlcNAc
Outline: as §1

[14] = molecular target: GlcNAc(b1-2)Man(a1-3)[GlcNAc(b1-2)Man(a1-6)]Man(b1-4)GlcNAc(b1-4)[Fuc(a1-6)]GlcNAc
Outline: as §1

[15] = molecular target: GlcNAc(b1-2)Man(a1-3)[GlcNAc(b1-4)][GlcNAc(b1-2)Man(a1-6)]Man(b1-4)GlcNAc(b1-4)GlcNAc
Outline: as §1

[16] = molecular target: GlcNAc(b1-2)Man(a1-3)[GlcNAc(b1-4)][GlcNAc(b1-2)Man(a1-6)]Man(b1-4)GlcNAc(b1-4)[Fuc(a1-6)]GlcNAc
Outline: as §1

[17] = molecular target: GlcNAc(b1-2)[GlcNAc(b1-4)]Man(a1-3)[GlcNAc(b1-2)Man(a1-6)]Man(b1-4)GlcNAc(b1-4)GlcNAc
Outline: as §1

[18] = molecular target: GlcNAc(b1-2)[GlcNAc(b1-4)]Man(a1-3)[GlcNAc(b1-4)][GlcNAc(b1-2)Man(a1-6)]Man(b1-4)GlcNAc(b1-4)GlcNAc
Outline: as §1

[19] = molecular target: GlcNAc(b1-2)[GlcNAc(b1-4)]Man(a1-3)[GlcNAc(b1-4)][GlcNAc(b1-2)[GlcNAc(b1-6)]Man(a1-6)]Man(b1-4)GlcNAc(b1-4)GlcNAc
Outline: as §1

[20] = molecular target: GlcNAc(b1-2)[GlcNAc(b1-4)]Man(a1-3)[GlcNAc(b1-4)][GlcNAc(b1-2)[GlcNAc(b1-6)]Man(a1-6)]Man(b1-4)GlcNAc(b1-4)[Fuc(a1-6)]GlcNAc
Outline: as §1

[21] = molecular target: GlcNAc(b1-2)[GlcNAc(b1-6)]Man(a1-6)[GlcNAc(b1-2)Man(a1-3)]Man(b1-4)GlcNAc(b1-4)GlcNAc
Outline: as §1

[22] = molecular target: GlcNAc(b1-2)[GlcNAc(b1-6)]Man(a1-6)[GlcNAc(b1-2)Man(a1-3)]Man(b1-4)GlcNAc(b1-4)[Fuc(a1-6)]GlcNAc
Outline: as §1

[23] = molecular target: GlcNAc(b1-2)[GlcNAc(b1-6)]Man(a1-6)[GlcNAc(b1-4)][GlcNAc(b1-2)Man(a1-3)]Man(b1-4)GlcNAc(b1-4)GlcNAc
Outline: as §1

GlcNAc(b1-3)Fuc = molecular target: GlcNAc(b1-3)Fuc
Outline: as §1

GlcNAc(b1-3)Gal = molecular target: GlcNAc(b1-3)Gal
Outline: as §1

[24] = molecular target: GlcNAc(b1-3)Gal(b1-3)GalNAc
Outline: as §1

GlcNAc(b1-3)Gal(b1-4)Glc = molecular target: GlcNAc(b1-3)Gal(b1-4)Glc
Outline: as §1

[25] = molecular target: GlcNAc(b1-3)Gal(b1-4)GlcNAc
Outline: as §1

[26] = molecular target: GlcNAc(b1-3)Gal(b1-4)GlcNAc(b1-2)Man(a1-3)[GlcNAc(b1-3)Gal(b1-4)GlcNAc(b1-2)Man(a1-6)]Man(b1-4)GlcNAc(b1-4)GlcNAc
Outline: as §1

[27] = molecular target: GlcNAc(b1-3)Gal(b1-4)GlcNAc(b1-2)Man(a1-3)[GlcNAc(b1-3)Gal(b1-4)GlcNAc(b1-2)Man(a1-6)]Man(b1-4)GlcNAc(b1-4)[Fuc(a1-6)]GlcNAc
Outline: as §1

[28] = molecular target: GlcNAc(b1-3)Gal(b1-4)GlcNAc(b1-2)[GlcNAc(b1-3)Gal(b1-4)GlcNAc(b1-6)]Man(a1-6)[GlcNAc(b1-3)Gal(b1-4)GlcNAc(b1-2)Man(a1-3)]Man(b1-4)GlcNAc(b1-4)GlcNAc
Outline: as §1

[29] = molecular target: GlcNAc(b1-3)Gal(b1-4)GlcNAc(b1-3)Gal(b1-4)GlcNAc
Outline: as §1

[30] = molecular target: GlcNAc(b1-3)Gal(b1-4)GlcNAc(b1-3)Gal(b1-4)GlcNAc(b1-2)Man(a1-3)[GlcNAc(b1-3)Gal(b1-4)GlcNAc(b1-3)Gal(b1-4)GlcNAc(b1-2)Man(a1-6)]Man(b1-4)GlcNAc(b1-4)GlcNAc
Outline: as §1

[31] = molecular target: GlcNAc(b1-3)Gal(b1-4)GlcNAc(b1-3)Gal(b1-4)GlcNAc(b1-2)Man(a1-3)[GlcNAc(b1-3)Gal(b1-4)GlcNAc(b1-3)Gal(b1-4)GlcNAc(b1-2)Man(a1-6)]Man(b1-4)GlcNAc(b1-4)[Fuc(a1-6)]GlcNAc
Outline: as §1

[32] = molecular target: GlcNAc(b1-3)Gal(b1-4)GlcNAc(b1-3)Gal(b1-4)GlcNAc(b1-2)[GlcNAc(b1-3)Gal(b1-4)GlcNAc(b1-3)Gal(b1-4)GlcNAc(b1-6)]Man(a1-6)[GlcNAc(b1-3)Gal(b1-4)GlcNAc(b1-3)Gal(b1-4)GlcNAc(b1-2)Man(a1-3)]Man(b1-4)GlcNAc(b1-4)[Fuc(a1-6)]GlcNAc
Outline: as §1

[33] = molecular target: GlcNAc(b1-3)Gal(b1-4)GlcNAc(b1-3)Gal(b1-4)GlcNAc(b1-3)Gal(b1-4)GlcNAc(b1-2)Man(a1-3)[GlcNAc(b1-3)Gal(b1-4)GlcNAc(b1-3)Gal(b1-4)GlcNAc(b1-3)Gal(b1-4)GlcNAc(b1-2)Man(a1-6)]Man(b1-4)GlcNAc(b1-4)GlcNAc
Outline: as §1

[34] = molecular target: GlcNAc(b1-3)Gal(b1-4)GlcNAc(b1-3)Gal(b1-4)GlcNAc(b1-3)Gal(b1-4)GlcNAc(b1-2)Man(a1-3)[GlcNAc(b1-3)Gal(b1-4)GlcNAc(b1-3)Gal(b1-4)GlcNAc(b1-3)Gal(b1-4)GlcNAc(b1-2)Man(a1-6)]Man(b1-4)GlcNAc(b1-4)[Fuc(a1-6)]GlcNAc
Outline: as §1

[35] = molecular target: GlcNAc(b1-3)Gal(b1-4)GlcNAc(b1-3)Gal(b1-4)GlcNAc(b1-3)Gal(b1-4)GlcNAc(b1-2)[GlcNAc(b1-3)Gal(b1-4)GlcNAc(b1-3)Gal(b1-4)GlcNAc(b1-3)Gal(b1-4)GlcNAc(b1-6)]Man(a1-6)[GlcNAc(b1-3)Gal(b1-4)GlcNAc(b1-3)Gal(b1-4)GlcNAc(b1-3)Gal(b1-4)GlcNAc(b1-2)Man(a1-3)]Man(b1-4)GlcNAc(b1-4)[Fuc(a1-6)]GlcNAc
Outline: as §1

[36] = molecular target: GlcNAc(b1-3)Gal(b1-4)GlcNAc(b1-3)Gal(b1-4)GlcNAc(b1-3)Gal(b1-4)GlcNAc(b1-3)Gal(b1-4)GlcNAc(b1-2)Man(a1-3)[GlcNAc(b1-3)Gal(b1-4)GlcNAc(b1-3)Gal(b1-4)GlcNAc(b1-3)Gal(b1-4)GlcNAc(b1-3)Gal(b1-4)GlcNAc(b1-2)Man(a1-6)]Man(b1-4)GlcNAc(b1-4)GlcNAc
Outline: as §1

[37] = molecular target: GlcNAc(b1-3)Gal(b1-4)GlcNAc(b1-3)Gal(b1-4)GlcNAc(b1-3)Gal(b1-4)GlcNAc(b1-3)Gal(b1-4)GlcNAc(b1-2)Man(a1-3)[GlcNAc(b1-3)Gal(b1-4)GlcNAc(b1-3)Gal(b1-4)GlcNAc(b1-3)Gal(b1-4)GlcNAc(b1-3)Gal(b1-4)GlcNAc(b1-2)Man(a1-6)]Man(b1-4)GlcNAc(b1-4)[Fuc(a1-6)]GlcNAc
Outline: as §1

[38] = molecular target: GlcNAc(b1-3)Gal(b1-4)GlcNAc(b1-3)Gal(b1-4)GlcNAc(b1-3)Gal(b1-4)GlcNAc(b1-3)Gal(b1-4)GlcNAc(b1-2)[GlcNAc(b1-3)Gal(b1-4)GlcNAc(b1-3)Gal(b1-4)GlcNAc(b1-3)Gal(b1-4)GlcNAc(b1-3)Gal(b1-4)GlcNAc(b1-6)]Man(a1-6)[GlcNAc(b1-3)Gal(b1-4)GlcNAc(b1-3)Gal(b1-4)GlcNAc(b1-3)Gal(b1-4)GlcNAc(b1-3)Gal(b1-4)GlcNAc(b1-2)Man(a1-3)]Man(b1-4)GlcNAc(b1-4)[Fuc(a1-6)]GlcNAc
Outline: as §1

B1: Clec18A (Homo sapiens) (protein)
chain: PFHTCDLRIDGDCFMVSSEADTYYRARMKCQRKGGVLAQIKRQKVQDILAFYLGRLETTNEVIDSDFETRNFWIGLTYKTAKDSFRWATGEHQAFTSFAFGQPDNHGFGNCVELQASAAFNWNDQRCKTRNRYICQ
For B1, the “glycan array binding signal (z-score)” value (Glc(b1-6)Glc) was -0.715, the “glycan array binding signal (z-score)” value (GlcA(b1-3)Gal) was -0.897 and the “glycan array binding signal (z-score)” value (GlcA(b1-3)GlcNAc) was -0.548. The “glycan array binding signal (z-score)” value (GlcA(b1-6)Gal) was 8.1, the “glycan array binding signal (z-score)” value [1] was -0.619 and the “glycan array binding signal (z-score)” value [2] was 0.435. The “glycan array binding signal (z-score)” value [3] was -0.82, the “glycan array binding signal (z-score)” value [4] was -0.342 and the “glycan array binding signal (z-score)” value [5] was 1.05. The “glycan array binding signal (z-score)” value [6] was -0.677, the “glycan array binding signal (z-score)” value [7] was -0.68 and the “glycan array binding signal (z-score)” value [8] was -0.784. For the same binder, the “glycan array binding signal (z-score)” value [9] was -0.889, the “glycan array binding signal (z-score)” value [10] was -0.419 and the “glycan array binding signal (z-score)” value [11] was 0.11. For the same binder, the “glycan array binding signal (z-score)” value [12] was -0.775, the “glycan array binding signal (z-score)” value [13] was -0.838 and the “glycan array binding signal (z-score)” value [14] was -0.289. The “glycan array binding signal (z-score)” value [15] was -0.723, the “glycan array binding signal (z-score)” value [16] was -0.53 and the “glycan array binding signal (z-score)” value [17] was -0.935. The “glycan array binding signal (z-score)” value [18] was -0.86, the “glycan array binding signal (z-score)” value [19] was -0.674 and the “glycan array binding signal (z-score)” value [20] was -0.555. The “glycan array binding signal (z-score)” value [21] was -0.742, the “glycan array binding signal (z-score)” value [22] was -0.696 and the “glycan array binding signal (z-score)” value [23] was -0.878. For the same binder, the “glycan array binding signal (z-score)” value (GlcNAc(b1-3)Fuc) was -0.649, the “glycan array binding signal (z-score)” value (GlcNAc(b1-3)Gal) was -0.57 and the “glycan array binding signal (z-score)” value [24] was -0.027. For the same binder, the “glycan array binding signal (z-score)” value (GlcNAc(b1-3)Gal(b1-4)Glc) was -0.739, the “glycan array binding signal (z-score)” value [25] was -0.66 and the “glycan array binding signal (z-score)” value [26] was -0.164. For the same binder, the “glycan array binding signal (z-score)” value [27] was -0.647, the “glycan array binding signal (z-score)” value [28] was 0.215 and the “glycan array binding signal (z-score)” value [29] was -0.41. The “glycan array binding signal (z-score)” value [30] was -0.619, the “glycan array binding signal (z-score)” value [31] was -0.763 and the “glycan array binding signal (z-score)” value [32] was -0.256. For the same binder, the “glycan array binding signal (z-score)” value [33] was 0.049, the “glycan array binding signal (z-score)” value [34] was -0.672 and the “glycan array binding signal (z-score)” value [35] was -0.614. The “glycan array binding signal (z-score)” value [36] was 1.14, the “glycan array binding signal (z-score)” value [37] was -0.406 and the “glycan array binding signal (z-score)” value [38] was -0.085.

Source: the supplement of paper PMC8728848
